{"sequences": {"note": "Chains of the proteins cited; added tags and fusions are not shown. Residues count along the entry.", "UniProt P43220, 24-463, species assumed": "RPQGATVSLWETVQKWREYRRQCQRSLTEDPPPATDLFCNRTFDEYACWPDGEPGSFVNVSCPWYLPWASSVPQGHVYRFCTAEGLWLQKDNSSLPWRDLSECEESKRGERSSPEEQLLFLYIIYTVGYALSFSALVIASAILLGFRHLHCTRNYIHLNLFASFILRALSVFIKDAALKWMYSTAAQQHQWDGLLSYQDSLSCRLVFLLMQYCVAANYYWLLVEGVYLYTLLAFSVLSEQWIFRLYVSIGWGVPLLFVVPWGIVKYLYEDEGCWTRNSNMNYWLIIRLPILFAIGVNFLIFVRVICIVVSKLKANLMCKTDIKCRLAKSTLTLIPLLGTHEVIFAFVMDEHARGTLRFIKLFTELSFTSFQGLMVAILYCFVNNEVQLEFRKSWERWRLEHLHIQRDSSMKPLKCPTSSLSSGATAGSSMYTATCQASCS"}, "source": "patent EP4803094A2", "about": "“GLP-1/GIP DUAL, GLP-1/GCG DUAL AND GLP-1/GIP/GCG TRIPLE RECEPTOR AGONISTS” (Sun Pharmaceutical Industries Limited, priority 2023, dated 2024)", "key": {"GLP-1R": {"target": "GLP-1R (Homo sapiens, UniProt P43220)", "experiment": "Hit Hunter cAMP assay in cells stably expressing GLP-1R", "assay_type": "cell-based", "details": "GLP-1R-expressing cells, values given in pM", "excerpt": "(§1) Stably expressing GLP-1R, GIPR or GCGR cell lines were used to determine in-vitro potency of the compounds as described herein. Signaling by the GLP-1R, GIP-R, and GCG-R involves activation of adenylate cyclase and cAMP production. Hit Hunter® cAMP assays monitor the activation of GLP-1R, GIPR or GCGR via Gi and Gs secondary messenger signaling using a technology developed by DiscoverX which is called Enzyme Fragment Complementation (EFC) with β-galactosidase (β-Gal) as the functional reporter. The enzyme is split into two complementary portions: EA for Enzyme Acceptor and ED for Enzyme Donor. ED is fused to cAMP and in the assay competes with cAMP generated by cells for binding to a cAMP-specific antibody. Active β-Gal is formed by complementation of exogenous EA to any unbound ED cAMP. Active enzyme can then convert a chemiluminescent substrate, generating an output signal detectable on a standard microplate reader. Three different assays were performed using cells expressing either of the three receptors. cAMP Hunter cell lines were expanded from freezer stocks according to standard procedures. […] Microplates were read following signal generation with a PerkinElmer EnvisionTM instrument for chemiluminescent signal detection. […] Four parametric logistic curve was generated and EC50 was determined. […]"}, "GCGR": {"target": "GCGR (Homo sapiens, UniProt P47871)", "experiment": "Hit Hunter cAMP assay in cells stably expressing GCGR", "assay_type": "cell-based", "details": "values given in pM, read-out: EC50 value GCG", "excerpt": "as §1"}, "GIPR": {"target": "T1, GIPR (Homo sapiens, UniProt P48546)", "T1 sequence (P48546 22-466)": "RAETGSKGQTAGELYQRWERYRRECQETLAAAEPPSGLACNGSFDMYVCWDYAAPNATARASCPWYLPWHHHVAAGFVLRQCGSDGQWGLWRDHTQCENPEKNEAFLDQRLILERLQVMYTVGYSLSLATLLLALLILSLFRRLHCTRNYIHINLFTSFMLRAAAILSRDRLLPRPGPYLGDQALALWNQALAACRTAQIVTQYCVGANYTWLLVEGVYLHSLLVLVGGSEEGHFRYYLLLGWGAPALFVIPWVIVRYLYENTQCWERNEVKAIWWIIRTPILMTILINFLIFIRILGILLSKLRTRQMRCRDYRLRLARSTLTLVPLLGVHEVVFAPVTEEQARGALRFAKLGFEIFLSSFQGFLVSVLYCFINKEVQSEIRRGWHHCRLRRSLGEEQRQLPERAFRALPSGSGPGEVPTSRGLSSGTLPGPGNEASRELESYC", "experiment": "Hit Hunter cAMP assay in cells stably expressing GIPR", "assay_type": "cell-based", "details": "values given in pM, read-out: EC50 value GIP", "excerpt": "as §1"}, "[1]": {"test_system": "Type 2 diabetes mouse (db/db) model", "experiment": "Efficacy study in db/db mice (blood glucose, body weight, food consumption)", "assay_type": "in vivo", "details": "10 nM/kg s.c. single dose, mean (n=6)", "protocol": "The effect of the compounds as described herein on blood glucose, food intake and body weight were studied in mice. This study was performed in Type 2 diabetes mouse (db/db) model. The animals were divided into 9 treatment groups (n=6): a diabetic control group, Compound 12 (10 nM/kg), Compound 13 (10 nM/kg), Compound 26 (10 nM/kg), Compound 14 (10 nM/kg), Compound 15 (10 nM/kg), Compound 21 (10 nM/kg), Compound 22 (10 nM/kg), and Tirzepatide (10 nM/kg). Baseline blood glucose was measured from all the animals. All the animals were administered with test item subcutaneously. Blood glucose was measured at 4 hr, 8 hr, 12 hr, 24 hr, 48 hr, 72 hr, and 96 hr post treatment. Delta blood glucose (mM) was calculated. Body weight changes and cumulative food consumption were measured at 48 hr and 96 hr post treatment. Table 3. Effect on Blood Glucose"}}, "note": "For some assays here: At least one peptide structure holds a part that was inferred or is arguable (an end, a ring closure or a residue). Marks after values point to notes of the source that are not given here. For some assays here: At least one compound was matched to its structure with a doubt left.", "data": [{"smiles": "CC[C@H](C)[C@H](NC(=O)[C@H](Cc1ccccc1)NC(=O)[C@H](C)NC(=O)C(C)(C)NC(=O)[C@H](CCC(N)=O)NC(=O)[C@H](C)NC(=O)[C@H](CCCCNC(=O)COCCOCCNC(=O)CC[C@H](NC(=O)CCCCCCCCCCCCCCCCCCC(=O)O)C(=O)O)NC(=O)[C@H](CCCCN)NC(=O)[C@H](CC(=O)O)NC(=O)[C@H](CC(C)C)NC(=O)[C@](C)(CC(C)C)NC(=O)[C@@H](NC(=O)[C@H](CO)NC(=O)[C@H](Cc1ccc(O)cc1)NC(=O)[C@H](CC(=O)O)NC(=O)[C@H](CO)NC(=O)[C@@H](NC(=O)[C@H](Cc1ccccc1)NC(=O)[C@@H](NC(=O)CNC(=O)[C@H](CCC(N)=O)NC(=O)C(C)(C)NC(=O)[C@@H](N)Cc1ccc(O)cc1)[C@@H](C)O)[C@@H](C)O)[C@@H](C)CC)C(=O)N[C@@H](CCC(=O)O)C(=O)N[C@@H](Cc1ccc(O)cc1)C(=O)N[C@@H](CC(C)C)C(=O)N[C@@H](CC(C)C)C(=O)N[C@@H](CCC(=O)O)C(=O)NCC(=O)NCC(=O)N1CCC[C@H]1C(=O)N[C@@H](CO)C(=O)N[C@@H](CO)C(=O)NCC(=O)N[C@@H](C)C(=O)N1CCC[C@H]1C(=O)N1CCC[C@H]1C(=O)N1CCC[C@H]1C(=O)N[C@@H](CO)C(N)=O", "note": "[Retatrutide, reference compound]", "values": [{"measurement": "EC50", "setting": "GLP-1R", "result": 8.3, "unit": "pM"}, {"measurement": "EC50", "setting": "GCGR", "result": 9.63, "unit": "pM"}, {"measurement": "EC50", "setting": "GIPR", "result": 5.99, "unit": "pM"}]}, {"smiles": "CC[C@H](C)[C@H](NC(=O)[C@H](CC(C)C)NC(=O)[C@H](Cc1c[nH]c2ccccc12)NC(=O)[C@H](CCC(N)=O)NC(=O)[C@@H](NC(=O)[C@H](Cc1ccccc1)NC(=O)[C@H](C)NC(=O)[C@H](CCCCNC(=O)COCCOCCNC(=O)COCCOCCNC(=O)CC[C@H](NC(=O)CCCCCCCCCCCCCCCCCCC(=O)O)C(=O)O)NC(=O)[C@H](CCC(N)=O)NC(=O)[C@H](C)NC(=O)[C@@H](NC(=O)[C@H](CCCCN)NC(=O)[C@H](CC(=O)O)NC(=O)[C@H](CC(C)C)NC(=O)C(C)(C)NC(=O)[C@@H](NC(=O)[C@H](CO)NC(=O)[C@H](Cc1ccc(O)cc1)NC(=O)[C@H](CC(=O)O)NC(=O)[C@H](CO)NC(=O)[C@@H](NC(=O)[C@H](Cc1ccccc1)NC(=O)[C@@H](NC(=O)CNC(=O)[C@H](CCC(=O)O)NC(=O)C(C)(C)NC(=O)[C@@H](N)Cc1ccc(O)cc1)[C@@H](C)O)[C@@H](C)O)[C@@H](C)CC)[C@@H](C)CC)C(C)C)C(=O)N[C@@H](C)C(=O)NCC(=O)NCC(=O)N1CCC[C@H]1C(=O)N[C@@H](CO)C(=O)N[C@@H](CO)C(=O)NCC(=O)N[C@@H](C)C(=O)N1CCC[C@H]1C(=O)N1CCC[C@H]1C(=O)N1CCC[C@H]1C(=O)N[C@@H](CO)C(N)=O", "note": "[Tirzepatide, reference compound]", "values": [{"measurement": "Cumulative Food Consumption (g) 0-48 hr", "setting": "[1]; 0-48 hr", "result": "2.4*** g"}, {"measurement": "Cumulative Food Consumption (g) 0-96 hr", "setting": "[1]; 0-96 hr", "result": "9.6*** g"}, {"measurement": "Delta Blood Glucose (mM)", "setting": "[1]; 4 hr post treatment", "result": "-9.2** mM"}, {"measurement": "Delta Blood Glucose (mM)", "setting": "[1]; 8 hr post treatment", "result": "-12.3*** mM"}, {"measurement": "Delta Blood Glucose (mM)", "setting": "[1]; 12 hr post treatment", "result": "-12.9*** mM"}, {"measurement": "Delta Blood Glucose (mM)", "setting": "[1]; 24 hr post treatment", "result": "-14.4*** mM"}, {"measurement": "Delta Blood Glucose (mM)", "setting": "[1]; 48 hr post treatment", "result": "-12.2*** mM"}, {"measurement": "Body Weight Change (%) 48 hr", "setting": "[1]; 48 hr", "result": "-4.6*** %"}, {"measurement": "Delta Blood Glucose (mM)", "setting": "[1]; 72 hr post treatment", "result": "-8.2* mM"}, {"measurement": "Delta Blood Glucose", "setting": "[1]; 96 hr post treatment", "result": -4.7, "unit": "mM"}, {"measurement": "Body Weight Change (%) 96 hr", "setting": "[1]; 96 hr", "result": "-1.8** %"}]}]}
